Assay results: publication doi:10.1101/2025.02.28.640455

Amino acid sequences for entries named in this document (tags omitted).
UniProt Q60722: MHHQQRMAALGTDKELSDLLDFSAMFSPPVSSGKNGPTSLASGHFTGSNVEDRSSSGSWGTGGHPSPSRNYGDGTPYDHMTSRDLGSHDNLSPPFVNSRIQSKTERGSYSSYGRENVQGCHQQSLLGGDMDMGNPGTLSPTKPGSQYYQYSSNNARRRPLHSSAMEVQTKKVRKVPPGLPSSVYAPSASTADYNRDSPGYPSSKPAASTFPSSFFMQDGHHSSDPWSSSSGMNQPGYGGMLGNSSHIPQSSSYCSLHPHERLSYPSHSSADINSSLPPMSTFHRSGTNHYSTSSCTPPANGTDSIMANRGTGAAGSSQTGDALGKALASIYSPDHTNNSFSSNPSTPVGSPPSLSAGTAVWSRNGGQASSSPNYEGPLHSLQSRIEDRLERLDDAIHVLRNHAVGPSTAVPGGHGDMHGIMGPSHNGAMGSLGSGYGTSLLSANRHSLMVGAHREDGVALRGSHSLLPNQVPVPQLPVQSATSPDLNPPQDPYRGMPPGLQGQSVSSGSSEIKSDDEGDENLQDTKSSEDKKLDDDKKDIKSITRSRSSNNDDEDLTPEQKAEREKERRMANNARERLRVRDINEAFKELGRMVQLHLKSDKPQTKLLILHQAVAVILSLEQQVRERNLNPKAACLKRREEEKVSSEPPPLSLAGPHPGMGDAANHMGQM
UniProt P42227: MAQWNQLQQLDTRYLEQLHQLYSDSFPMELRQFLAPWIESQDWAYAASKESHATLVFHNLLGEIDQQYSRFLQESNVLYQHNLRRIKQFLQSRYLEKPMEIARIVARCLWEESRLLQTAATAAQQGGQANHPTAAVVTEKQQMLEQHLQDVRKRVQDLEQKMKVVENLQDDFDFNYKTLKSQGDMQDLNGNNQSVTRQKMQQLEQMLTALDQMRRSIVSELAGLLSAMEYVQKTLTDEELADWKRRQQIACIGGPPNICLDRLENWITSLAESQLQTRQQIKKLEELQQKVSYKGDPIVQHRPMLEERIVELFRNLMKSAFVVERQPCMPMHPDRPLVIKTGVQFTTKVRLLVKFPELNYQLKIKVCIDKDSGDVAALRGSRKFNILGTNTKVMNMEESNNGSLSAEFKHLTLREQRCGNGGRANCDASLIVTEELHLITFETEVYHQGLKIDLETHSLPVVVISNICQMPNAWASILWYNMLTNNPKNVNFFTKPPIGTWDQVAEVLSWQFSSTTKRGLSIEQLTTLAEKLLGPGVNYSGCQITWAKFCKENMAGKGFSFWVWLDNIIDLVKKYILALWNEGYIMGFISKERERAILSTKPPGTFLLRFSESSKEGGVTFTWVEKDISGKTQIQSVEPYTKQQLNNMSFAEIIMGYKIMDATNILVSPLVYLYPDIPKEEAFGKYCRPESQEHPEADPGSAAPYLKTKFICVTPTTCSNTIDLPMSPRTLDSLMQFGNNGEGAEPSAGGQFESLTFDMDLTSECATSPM

B1: KDM4A (protein, UniProt Q8BW72 1-1064)
chain: MASESETLNPSARIMTFYPTMEEFRNFSRYIAYIESQGAHRAGLAKVVPPKEWKPRTSYDDIDDLVIPAPIQQLVTGQSGLFTQYNIQKKAMTVREFRKIANSDKYCTPRYSEFEELERKYWKNLTFNPPIYGADVNGTLYEQHVDEWNIGRLKTILDLVEKESGITIEGVNTPYLYFGMWKTSFAWHTEDMDLYSINYLHFGEPKSWYSVPPEHGKRLERLAKGFFPGSAQSCEAFLRHKMTLISPLMLKKYGIPFDKVTQEAGEFMITFPYGYHAGFNHGFNCAESTNFATRRWIEYGKQAVLCSCRKDMVKISMDVFVRRFQPERYKLWKAGKDSMVIDHTLPTPEAAEFLKDSGGLTPRAGSEECPEEDVEAADQGEEGDVKRSLAKHRIGTKRHRVCLEIPQEVSQSELFPKEELSSGQYEMTECPATLAPVRPTHSSVRQVEDSLPFPDYSDPTEVKFEELKNVKLEEEDEEDEPEAAALDLSVNPASVGGRLVFSGSKKKSSSSLGSTSSQDSVSSDSETAESVSCQGQEKTGVLTVHSYARGDGKAATGEPSVKKKRSAPRSISEQELAEVADEYMLSLEENKKTKGRRQPLSKLPRHHPLVLQECGSDDETSEQLTPEEEAEETEAWAKPLSQLWQNRPPNFEAEKEFNEIMAQQAPHCAVCMIFQTYHQVEFGAFSQSCGDASEPAAQTQRTKPLIPEMCFTTTGCSTDINLSTPYLEEDGTSMLVSCKKCSVRVHASCYGVPPAKASEEWMCSRCSANALEEDCCLCSLRGGALQRANDDRWVHVSCAVAILEARFVNIAERSPVDVSKIPLPRFKLKCVFCKKRRKRNAGCCVQCSHGRCPTAFHVSCAQAAGVMMQPDDWPFVVFITCFRHKIPNLERAKGALLSITAGQKVISKHKNGRFYQCEVVRLTTETFYEVNFDDGSFSDNLYPEDIVSQDCLQLGPPAEGEVVQVRWTDGQVYGAKFVASHPIQMYQVEFEDGSQLVVKRDDVYTLDEELPKRVKSRLSVASDMRFNEIFTEKEVKQEKKRQRVINSRYREDYIEPALYRAIME
B2: LMX1B (protein, UniProt O88609 1-395)
chain: MDIATGPESLERCFPRGQTDCAKMLDGIKMEEHALRPGPATLGVLLGSDCPHPAVCEGCQRPISDRFLMRVNESSWHEECLQCAACQQALTTSCYFRDRKLYCKQDYQQLFAAKCSGCMEKIAPTEFVMRALECVYHLGCFCCCVCERQLRKGDEFVLKEGQLLCKGDYEKEKDLLSSVSPDESDSVKSEDEDGDMKPAKGQGSQSKGSGDDGKDPRRPKRPRTILTTQQRRAFKASFEVSSKPCRKVRETLAAETGLSVRVVQVWFQNQRAKMKKLARRHQQQQEQQNSQRLGQEVLSSRMEGMMASYTPLAPPQQQIVAMEQSPYGSSDPFQQGLTPPQMPGNDSIFHDIDSDTSLTSLSDCFLGSSDVGSLQARVGNPIDRLYSMQSSYFAS
B3: NFYB (protein, UniProt P63139 1-207)
chain: MTMDGDSSTTDASQLGISADYIGGSHYVIQPHDDTEDSMNDHEDTNGSKESFREQDIYLPIANVARIMKNAIPQTGKIAKDAKECVQECVSEFISFITSEASERCHQEKRKTINGEDILFAMSTLGFDSYVEPLKLYLQKFREAMKGEKGIGGAVSATDGLSEELTEEAFTNQLPAGLITADGQQQNVMVYTTSYQQISGVQQIQFS
B4: TCF21 (protein, UniProt O35437 1-179)
chain: MSTGSLSDVEDLQEVEMLDCDSLKVDSNKEFGTSNESTEEGSNCENGSPQKGRGGLGKRRKAPTKKSPLSGVSQEGKQVQRNAANARERARMRVLSKAFSRLKTTLPWVPPDTKLSKLDTLRLASSYIAHLRQILANDKYENGYIHPVNLTWPFMVAGKPENDLKEVVTANRLCGTTAS
B5: FOXL2 (protein, UniProt O88470 1-375)
chain: MMASYPEPEDTAGTLLAPESGRAVKEAEASPPSPGKGGGTTPEKPDPAQKPPYSYVALIAMAIRESAEKRLTLSGIYQYIIAKFPFYEKNKKGWQNSIRHNLSLNECFIKVPREGGGERKGNYWTLDPACEDMFEKGNYRRRRRMKRPFRPPPAHFQPGKGLFGSGGAAGGCGVPGAGADGYGYLAPPKYLQSGFLNNSWPLPQPPSPMPYASCQMAAAAAAAAAAAAAAGPGSPGAAAVVKGLAGPAASYGPYSRVQSMALPPGVVNSYNGLGGPPAAPPPPPPPPHPHPHPHAHHLHAAAAPPPAPPHHGAAAPPPGQLSPASPATAAPPAPAPTSAPGLQFACARQPELAMMHCSYWDHDSKTGALHSRLDL

Biological target: Transcription factor 4 (TCF4) (mouse (endogenous in E12.5 Nr5a1-GFP gonadal cells)) (UniProt Q60722)
Experiment: affinity purification with mass spectrometry; endogenous TCF4 immunoprecipitated (anti-TCF4 crosslinked to Protein G Dynabeads, IgG control) from lysates of FACS-sorted E12.5 XX or XY Nr5a1-GFP gonadal cells, three replicates of 4 million cells; overnight at 4°C; washes up to 1% Triton X-100 and 360 mM NaCl; LC-MS (DIA); partners at least 1.5-fold over IgG, P <= 0.05

| binding | Molecule |
| --- | --- |
| binds | STAT3 (from UniProt P42227 1-770) |

Biological target: Transcription factor 4 (TCF4) (mouse (endogenous in E12.5 Nr5a1-GFP gonadal cells)) (UniProt Q60722)
Experiment: as above
Remark: another data set of the same source

| binding | Molecule |
| --- | --- |
| binds | B1 |
| binds | B2 |
| binds | B3 |
| binds | B4 |
| binds | B5 |

Results are given in words; binding and its absence hold for the method and conditions named. Binding seen in cells or lysates may run through a third protein. These calls come from enrichment with a bait or labelling near it, and not all partners need be listed.
